# Experimental data from PubChem BioAssay AID493014 (National Center for Advancing Translational Sciences (NCATS), 2011).
# The list shows a part of the results. Further columns of the screen follow, without active or inactive calls. Most of these compounds were active or inconclusive in the main read-out, so they are no random draw. The note in brackets gives the kind of curve behind each potency; many fits are weak.
# Test: qHTS Assay to Find Inhibitors of Chronic Active B-Cell Receptor Signaling
# Settings: ABC-DLBCL IkBa-CBG/CBR reporter, luminescence ratio (green luciferase fused to IkBa over red control in TMD8 lymphoma cells), 4 h
# Method in brief: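 TMD8 human ABC-DLBCL cells with doxycycline-inducible IκBα–green luciferase fusion and unfused red luciferase, in 0.5% FBS medium; compounds up to 46 uM, 4 h at 37C. Green/red luminescence ratio, filter-overlap corrected, fitted to concentration-response curves.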
# [1] = measured here: CBR red luminescence, cell number
SMILES,AC50 [1],AC50 (measured here: IkBa-CBG green luminescence)
COc1ccc(Cl)cc1C(=O)N(Cc1nc(-c2cccc(C)c2)no1)C(C)C,"28.2 µM [falling, single point]",
CCOc1ccc(CCNC(=O)COC(=O)CNC(=O)c2ccc(Br)o2)cc1OCC,"4.11 µM [rising, full curve, poor fit]",
O=C(COc1ccccc1)Nc1ccccc1C(=O)NCc1ccco1,"11.2 µM [falling, single point]",
Cc1cc(C)cc(N=Cc2ccc([N+](=O)[O-])s2)c1,"23.1 µM [falling, single point]",
O=C(N/N=C/c1cccnc1)c1cc(C2CC2)nc2ccccc12,"35.5 µM [falling, single point]",
CCOC(=O)C1CCN(C(=O)c2cc(-c3ccncc3)nc3ccccc23)CC1,"29.1 µM [rising, single point]",
Cc1cccc(Oc2ccccc2N)c1,"0.058 µM [rising, full curve, poor fit]",
COC(=O)CNC(=O)c1c(-c2c(Cl)cccc2Cl)noc1C,"7.94 µM [rising, partial curve, poor fit]",
OC(COCc1cccs1)CN1CCN(c2ccccc2Cl)CC1 (centres undefined),"7.31 µM [rising, partial curve, poor fit]",
CCSc1nnc(NC(=O)c2c(-c3ccccc3Cl)noc2C)s1,"10 µM [falling, partial curve, poor fit]",
C/C(CC(=O)Nc1cc(C)cc(C)c1)=N\NC(=O)c1ccccn1,"11.6 µM [falling, partial curve]",
c1ccc(N2CCN(c3nc4ccccc4n4nnnc34)CC2)cc1,"5.8 µM [falling, partial curve]","1.84 µM [rising, full curve, poor fit]"
CC(C)c1nnc(NC(=O)CCC(=O)NCC2CCCO2)s1 (centres undefined),"35.5 µM [rising, single point]",
O=C1N/C(=N\c2ccccn2)SC1Cc1ccc(Cl)cc1 (centres undefined),"1.12 µM [rising, full curve]",
CS(=O)(=O)N1CCN(c2ccccc2NC(=O)c2cccc3ccccc23)CC1,"0.146 µM [rising, full curve, poor fit]",
CC1CCCN(S(=O)(=O)c2ccc(NC(=O)Cc3ccc(S(=O)(=O)N4CCOCC4)s3)cc2)C1 (centres undefined),"6.51 µM [falling, partial curve, poor fit]",
CC(C)NC(=O)c1ccc2c(c1)N(CC(=O)N1CCCC1)C(=O)C(C)(C)O2,"20 µM [rising, partial curve, poor fit]",
O=C(NC(=S)Nc1ccc(S(=O)(=O)N2CCCC2)cc1)C1CC1,"5.62 µM [rising, partial curve, poor fit]",

# Molecules from the list above that have a thiophene ring, fused or not, in the order listed:
SMILES,AC50 [1],AC50 (measured here: IkBa-CBG green luminescence)
Cc1cc(C)cc(N=Cc2ccc([N+](=O)[O-])s2)c1,"23.1 µM [falling, single point]",
OC(COCc1cccs1)CN1CCN(c2ccccc2Cl)CC1 (centres undefined),"7.31 µM [rising, partial curve, poor fit]",
CC1CCCN(S(=O)(=O)c2ccc(NC(=O)Cc3ccc(S(=O)(=O)N4CCOCC4)s3)cc2)C1 (centres undefined),"6.51 µM [falling, partial curve, poor fit]",
